Columns and labels:
[1] = hardening: pot life and nail time of polyurethane mass
[2] = structural tear strength of the elastomer, DIN 53515; details: for STS (structural tear strength) at 20°: 20° C.; for STS (structural tear strength) at 60°: 60° C.
[3] = prepolymer PTMG-1000 TDI, amine 100 mol % in component B
[4] = prepolymer PCL-2000 TDI, amine 66 mol % in component B
[5] = prepolymer PCL-2000 TDI, amine 100 mol % in component B
[6] = prepolymer PCL-2000 MDI, amine 66 mol % in component B
[7] = prepolymer PCL-2000 MDI, amine 100 mol % in component B
[8] = prepolymer PTMG-1000 TDI, amine 80 mol % in component B
[9] = prepolymer PCL-2000 MDI, amine 66 mol % in component B, curing at 70° C.

Row | Compound | NT (nail time) [1, 3] | STS (structural tear strength) at 20° [2, 3] [N/mm] | STS (structural tear strength) at 60° [2, 3] [N/mm] | NT (nail time) [1, 4] | STS (structural tear strength) at 20° [2, 4] [N/mm] | STS (structural tear strength) at 60° [2, 4] [N/mm] | also measured
1 | Nc1ccc(Cc2ccc(N)c(Cl)c2)cc1Cl [Amine I, 4,4'-methylene-bis(2-chloroaniline), reference compound] | 44 ' | 72 | 39 |  |  |  | 
2 | Nc1ccc(Cc2ccc(N)cc2Cl)c(Cl)c1 [Amine II, 4,4'-Methylene-bis(3-chloroaniline), reference compound] |  |  |  | 30 ' | 35 | 5 | NT (nail time) [1, 5]: 5 '; PL (pot life) [1, 5]: 33 "; STS (structural tear strength) at 20° [2, 5]: 33 N/mm; STS (structural tear strength) at 60° [2, 5]: 8 N/mm
3 | CCc1cc(Cc2cc(CC)c(N)c(CC)c2Cl)c(Cl)c(CC)c1N [Amine V, 4,4'-Methylene-bis-(3-chloro-2,6-diethylaniline)] | 23 ' | 84 | 79 | 53 ' | 58 | 38 | NT (nail time) [1, 6]: 9 '; PL (pot life) [1, 6]: 19 "; NT (nail time) [1, 7]: 5 '; PL (pot life) [1, 7]: 20 "; NT (nail time) [1, 8]: 28 '; PL (pot life) [1, 8]: 3 '; STS (structural tear strength) at 20° [2, 6]: 64 N/mm; STS (structural tear strength) at 60° [2, 6]: 37 N/mm; STS (structural tear strength) at 20° [2, 7]: 74 N/mm; STS (structural tear strength) at 60° [2, 7]: 61 N/mm; STS (structural tear strength) at 20° [2, 8]: 87 N/mm; STS (structural tear strength) at 60° [2, 8]: 51 N/mm
4 | Cc1c(N)ccc(Cc2ccc(N)c(C)c2Cl)c1Cl [Amine III, 4,4'-methylene-bis (3-chloro-2-methylaniline), reference compound] |  |  |  |  |  |  | NT (nail time) [1, 6]: 9 '; PL (pot life) [1, 6]: 18 "; STS (structural tear strength) at 20° [2, 6]: 31 N/mm; STS (structural tear strength) at 60° [2, 6]: 16 N/mm
5 | Cc1c(N)c(C(C)C)cc(Cc2cc(C(C)C)c(N)c(C)c2Cl)c1Cl [Amine VIII, 4,4'-Methylene-bis(3-chloro-2-methyl-6-isopropylaniline)] |  |  |  | 25 ' | 61 | 31 | 
6 | CCc1c(N)c(Cl)cc(Cc2cc(Cl)c(N)c(CC)c2Cl)c1Cl [Amine IV, 4,4'-Methylene-bis(2,5-dichloro-6-ethylaniline)] |  |  |  | 25 ' | 75 | 55 | 
7 | CCC(C)OC(=O)c1cc(N)c(Cl)c(N)c1 (stereo not shown) [Amine XII, 3,5-diamino-4-chloro-benzoic acid sec-butyl ester, reference compound] | 120 ' | 93 | 52 |  |  |  | 
8 | Cc1cc(Cc2cc(C)c(N)c(C(C)C)c2Cl)c(Cl)c(C(C)C)c1N [Amine VII, 4,4'-Methylene-bis-(5-chloro-2-methyl-6-isopropylaniline)] |  |  |  |  |  |  | NT (nail time) [1, 9]: 7 '; PL (pot life) [1, 9]: 22 "; STS (structural tear strength) at 20° [2, 9]: 38 N/mm; STS (structural tear strength) at 60° [2, 9]: 22 N/mm
9 | CCC(C)c1c(N)c(C)cc(Cc2cc(C)c(N)c(C(C)CC)c2Cl)c1Cl (stereo not shown) [Amine X, 4,4'-Methylene-bis(5-chloro-2-methyl-6-sec-butylaniline)] | 16 ' | 52 | 32 |  |  |  | 
10 | CCc1cc(Cc2cc(CC)c(N)c(C)c2Cl)c(Cl)c(C)c1N [Amine VI, 4,4'-Methylene-bis-(3-chloro-2-methyl-6-ethylaniline)] |  |  |  | 40 ' | 62 | 53 | 
11 | CCC(C)c1cc(Cc2cc(C(C)CC)c(N)c(C(C)CC)c2Cl)c(Cl)c(C(C)CC)c1N (stereo not shown) [Amine IX, 4,4'-Methylene-bis-(3-chloro-2,6-di-sec-butylaniline)] | 18 ' | 67 | 32 |  |  |  | 
12 | Cc1cc(Cc2cc(C)c(N)cc2Cl)c(Cl)cc1N [Amine XI, 4,4'-Methylene-bis(5-chloro-2-methylaniline), reference compound] |  |  |  | 35 ' | 57 | 29 | NT (nail time) [1, 5]: 29 '; PL (pot life) [1, 5]: 30 "; STS (structural tear strength) at 20° [2, 5]: 68 N/mm; STS (structural tear strength) at 60° [2, 5]: 37 N/mm
